Results are given in words; binding and its absence hold for the method and conditions named. Some binding calls cover weakened binding; strength is not graded here. Tags and fused reporters may be left off the sequences shown. Each block holds one molecule with its values, some of them ahead of it.
Target: Ino80 carrying a C-terminal 2xFlag-tag (S. cerevisiae) (UniProt P53115)
Assay: co-purification (anti-Flag affinity, anion exchange, size exclusion); High Five cells co-infected with two baculoviruses; cleared lysate (500 mM NaCl) on anti-Flag M2 Affinity Gel by Ino80-2xFlag, washes with 500 and 200 mM KCl, elution with Flag peptide, MonoQ with KCl gradient 200-1000 mM and, if required, Superose 6

Protein sequences, listed by entry. Tags and fused reporters are not part of them.
UniProt P53115: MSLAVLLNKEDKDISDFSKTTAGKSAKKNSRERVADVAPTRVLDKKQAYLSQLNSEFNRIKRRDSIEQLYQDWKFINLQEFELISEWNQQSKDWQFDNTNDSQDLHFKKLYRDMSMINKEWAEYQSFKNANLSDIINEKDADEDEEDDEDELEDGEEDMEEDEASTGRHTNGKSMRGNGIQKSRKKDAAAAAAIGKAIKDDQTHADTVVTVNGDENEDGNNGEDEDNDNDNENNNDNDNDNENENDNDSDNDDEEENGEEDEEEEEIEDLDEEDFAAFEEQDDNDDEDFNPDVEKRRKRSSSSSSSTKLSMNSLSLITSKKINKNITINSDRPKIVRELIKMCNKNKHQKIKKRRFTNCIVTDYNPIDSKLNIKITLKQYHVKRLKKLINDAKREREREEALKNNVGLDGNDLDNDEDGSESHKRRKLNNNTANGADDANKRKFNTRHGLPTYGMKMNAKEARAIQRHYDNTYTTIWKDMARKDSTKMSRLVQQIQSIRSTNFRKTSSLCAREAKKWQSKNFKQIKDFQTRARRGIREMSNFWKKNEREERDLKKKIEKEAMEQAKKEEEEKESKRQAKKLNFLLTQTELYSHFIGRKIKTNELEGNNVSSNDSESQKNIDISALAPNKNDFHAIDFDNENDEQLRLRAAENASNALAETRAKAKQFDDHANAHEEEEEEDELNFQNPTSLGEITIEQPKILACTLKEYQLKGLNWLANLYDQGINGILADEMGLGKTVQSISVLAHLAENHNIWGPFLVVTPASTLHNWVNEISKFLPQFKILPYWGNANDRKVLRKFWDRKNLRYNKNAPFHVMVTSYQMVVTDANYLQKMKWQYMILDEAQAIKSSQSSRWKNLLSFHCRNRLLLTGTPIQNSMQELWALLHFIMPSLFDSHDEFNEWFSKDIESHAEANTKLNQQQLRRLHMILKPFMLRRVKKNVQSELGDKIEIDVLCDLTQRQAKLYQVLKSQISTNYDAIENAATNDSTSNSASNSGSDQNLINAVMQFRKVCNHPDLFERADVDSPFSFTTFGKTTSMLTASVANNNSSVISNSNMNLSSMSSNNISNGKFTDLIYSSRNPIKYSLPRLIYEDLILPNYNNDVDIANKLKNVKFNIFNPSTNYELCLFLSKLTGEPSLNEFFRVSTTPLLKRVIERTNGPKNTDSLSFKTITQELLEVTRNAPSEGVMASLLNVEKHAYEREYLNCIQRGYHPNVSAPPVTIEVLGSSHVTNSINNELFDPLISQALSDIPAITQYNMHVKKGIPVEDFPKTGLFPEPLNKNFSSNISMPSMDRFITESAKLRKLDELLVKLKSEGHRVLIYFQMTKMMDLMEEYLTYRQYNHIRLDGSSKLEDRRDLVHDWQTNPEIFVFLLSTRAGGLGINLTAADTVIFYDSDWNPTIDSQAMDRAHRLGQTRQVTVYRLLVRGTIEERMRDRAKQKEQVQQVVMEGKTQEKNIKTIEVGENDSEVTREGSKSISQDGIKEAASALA
UniProt P35189: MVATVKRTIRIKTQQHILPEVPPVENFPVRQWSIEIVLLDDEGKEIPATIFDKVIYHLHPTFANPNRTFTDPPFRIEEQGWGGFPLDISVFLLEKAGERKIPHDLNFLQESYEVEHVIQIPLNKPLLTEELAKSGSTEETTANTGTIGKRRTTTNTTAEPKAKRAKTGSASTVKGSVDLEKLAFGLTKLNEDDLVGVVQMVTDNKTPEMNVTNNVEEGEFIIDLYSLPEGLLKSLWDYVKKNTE

B1: Arp5-His (protein, UniProt P53946 1-755)
chain: MSSRDASLTPLKAVVIDDPPLRQTPEPFDEQSAYNPQSPIAIDFGSSKLRAGFVNHATPTHIFPNALTKFRDRKLNKNFTFVGNDTLLDQAVRSQSRSPFDGPFVTNWNLTEEILDYTFHHLGVVPDNGIPNPILLTERLATVQSQRTNWYQILFETYNVPGVTFGIDSLFSFYNYNPSGNKTGLVISCGHEDTNVIPVVDGAGILTDAKRINWGGHQAVDYLNDLMALKYPYFPTKMSYLQYETMYKDYCYVSRNYDEDIEKILTLENLDTNDVVVEAPFTEVLQPQKTEEELRIQAEKRKETGKRLQEQARLKRMEKLVQKQEEFEYFSKVRDQLIDEPKKKVLSVLQNAGFDDERDFKKYLHSLEQSLKKAQMVEAEDDSHLDEMNEDKTAQKFDLLDIADEDLNEDQIKEKRKQRFLKASQDARQKAKEEKERVAKEEEEKKLKEQQWRETDLNGWIKDKRLKLNKLIKRRKEKLKLRDEMKDRKSQVSQNRMKNLASLAEDNVKQGAKRNRHQATIDNDPNDTFGANDEDWLIYTDITQNPEAFEEALEYEYKDIVELERLLLEHDPNFTEEDTLEAQYDWRNSILHLFLRGPRPHDSENIHEQHQMHLNVERIRVPEVIFQPTMGGQDQAGICELSETILLKKFGSQPGKLSQTSIDMVNNVLITGGNAKVPGLKERIVKEFTGFLPTGTNITVNMSSDPSLDAWKGMAALARNEEQYRKTVISKKEYEEYGPEYIKEHKLGNTKYFED
- binding: binds

B3: Ies5 (protein, UniProt P40060 1-125)
chain: MPSKDPESVIDKEIRKISARNDELIKQDGTLKREYTTLLRKVSSVITVLNSIDDADTGSAETELPRLISQATVEKVPELKWYNDQISLITEKLEDDEDIEVPEELMDAYTLYKETPLLYNDTHTP
- binding: binds

B4: Ies3 (protein, UniProt Q12345 1-250)
chain: MKFEDLLATNKQVQFAHAATQHYKSVKTPDFLEKDPHHKKFHNADGLNQQGSSTPSTATDANAASTASTHTNTTTFKRHIVAVDDISKMNYEMIKNSPGNVITNANQDEIDISTLKTRLYKDNLYAMNDNFLQAVNDQIVTLNAAEQDQETEDPDLSDDEKIDILTKIQENLLEEYQKLSQKERKWFILKELLLDANVELDLFSNRGRKASHPIAFGAVAIPTNVNANSLAFNRTKRRKINKNGLLENIL
- binding: binds

B5: Ies4 (protein, UniProt Q08561 1-116)
chain: MSQESSVLSESQEQLANNPKIEDTSPPSANSRDNSKPVLPWDYKNKAIEIKSFSGYKVNFTGWIRRDVREERQRGSEFTASDVKGSDDKATRKKEPADEDPEVKQLEKEGEDGLDS
- binding: binds

B6: Ies1 (protein, UniProt P43579 1-692)
chain: MGKRVYDPIHDTFQLREDNSDETKADSPMQSVKSGSQEEASPSSIQSETETVTTKSIPVIHEIEIDDKNDDDSTQSEEENTNILLNFEPSTVPEATGASTATGPVTTNTVRRKPKESNASKYNRHLKKPDGEPFNRKDIQFSFMQELLMDKRQIFTNVLKPLYKNSIVPINIDGDKLSINVTDKEYDARTFVFNDKLTFAQLYVLTIATSIKCSKILRDKLLLDQQVAFSTCVLALLVNIGRLNTTINFYLEMTSQLRTFHSVPVLQLHANDPKLLQDTPRLKSILKNLPWGNEQLSLMETYKKVDQNDGEVDTVNKFNIINMLFSICDNSGLIDKRFLSKYVEVESKAQEQDMVDEQNEVKETEAENEKQESKAAYATTLFDILDYSKYEPKDRSNILIWLLYIHLETNLSQEEVEESVRFFNGLEDGAPAGKFILRCTERSYDTDPEDELEFGANQRIKRREFMSKMEEGRKRERTNVTEVKKPSIGGDKSEEDGEGEDDKSEETVEETRSLLTPTPILESSSPMTLNRKKVTPQLPKVTPAAPTETEEEITSAAIIDKNDLNLTPLKKYNSSATVNKVDKLISLDLNKHVSENGKTQEEFLADLKKSQVPNRLKRRDIGLIKIFNEFEDIPVASVLGIRGKKRKKFKDNLLGFETDFMKNLGASKKVLLNKIERAEIDDEEATAMFKLE
- binding: binds

B8: Ies2 (protein, UniProt P40154 1-320)
chain: MDSEASDIEAELSDSVSAGGEEYIDDDDYTEDIDDQIVTAKSSRRTARRSVPKGVRTSKRIRDKELSVEVDEDYDEEEDVLSPSKKRHLHTRSMDKRQVAATASEKSDIGDSKGNDGEIEDGILEEEESLEKELNRGGGKEVEKSEESYYAQNDVGQKGEEEQDGESGGYEDNEPSISKESDELVSVVNGNGNEEDDEVEATKENTTDSTRSTTTRSKMLLDLLEDGGSKKKLTDEEIQLRRAENARKRKNLSEKRLEEEKQDTINKLLKKRAGKSRSHLPNDDEKNDGSSSFVKPRRPYNSEGMTRILRRYEEDLFCTF
- binding: binds

Results, then the molecule that gave them:

- binding: binds
Molecule: Taf14 (from UniProt P35189 1-244)

- binding: binds
B2: Ies6 (protein, UniProt P32617 1-166)
chain: MSGSRGNSSNSSVSNNSNNNNNNDGGDERLLFLRSVGERNEIGFPSRFKSAHYKKPTRRHKSARQLISDENKRINALLTKANKAAESSTAARRLVPKATYFSVEAPPSIRPAKKYCDVTGLKGFYKSPTNNIRYHNAEIYQLIVKPMAPGVDQEYLKLRGANFVLK

- binding: binds
B7: Nhp10 (protein, UniProt Q03435 1-203)
chain: MSVEEKKRRLEELKDQNVVLGLAIQRSRLSVKRLKLEYGVLLERLESRIELDPELNCEDPLPTLASFKQELLTKPFRKSKTKRHKVKERDPNMPKRPTNAYLLYCEMNKERIRQNGSLDVTRDLAEGWKNLNEQDRKPYYKLYSEDRERYQMEMEIYNKKISNIDADDDKEENEQKIKNNEEGSSTKVADSKGGEDGSLVSSN
